Test results reported in publication PMC7513858.

Protein sequences, listed by entry. Tags and fused reporters are not part of them. Residues count along the entry.
UniProt P53712, residues 21-798: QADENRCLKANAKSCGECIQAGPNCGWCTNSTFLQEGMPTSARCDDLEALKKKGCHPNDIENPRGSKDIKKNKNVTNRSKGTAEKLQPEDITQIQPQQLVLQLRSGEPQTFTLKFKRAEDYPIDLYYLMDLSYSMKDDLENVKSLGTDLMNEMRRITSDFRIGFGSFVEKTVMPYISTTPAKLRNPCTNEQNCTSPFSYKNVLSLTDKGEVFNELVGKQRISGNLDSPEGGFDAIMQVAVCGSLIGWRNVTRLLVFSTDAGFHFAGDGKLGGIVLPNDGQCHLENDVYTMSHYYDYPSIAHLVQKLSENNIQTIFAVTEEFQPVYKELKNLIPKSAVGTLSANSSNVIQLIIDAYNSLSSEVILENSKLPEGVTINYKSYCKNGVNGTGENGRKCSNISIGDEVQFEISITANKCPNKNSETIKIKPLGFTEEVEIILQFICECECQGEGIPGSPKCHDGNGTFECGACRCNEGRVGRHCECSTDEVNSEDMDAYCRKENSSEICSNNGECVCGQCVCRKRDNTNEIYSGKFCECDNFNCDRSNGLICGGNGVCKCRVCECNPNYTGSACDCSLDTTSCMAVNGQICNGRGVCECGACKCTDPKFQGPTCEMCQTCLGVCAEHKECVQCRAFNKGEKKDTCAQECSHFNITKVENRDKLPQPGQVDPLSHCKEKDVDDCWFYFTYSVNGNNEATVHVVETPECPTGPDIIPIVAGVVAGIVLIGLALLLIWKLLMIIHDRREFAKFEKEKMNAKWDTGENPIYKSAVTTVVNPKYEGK

Target: T1, Fibronectin type III domain-containing 4 (bovine (endogenous in bovine MDSCs; species of the cloned cDNA not stated)) (UniProt A6QPL2)
T1 sequence: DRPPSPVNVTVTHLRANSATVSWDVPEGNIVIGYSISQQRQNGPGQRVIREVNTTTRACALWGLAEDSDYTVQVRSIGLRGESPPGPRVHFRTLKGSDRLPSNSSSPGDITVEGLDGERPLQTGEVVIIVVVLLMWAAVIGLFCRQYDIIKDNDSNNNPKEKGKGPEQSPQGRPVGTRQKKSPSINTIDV
Assay: affinity purification with mass spectrometry; lysate (RIPA: 150 mM NaCl, 50 mM Tris, 1 mM EDTA) of FNDC4-overexpressing bovine MDSCs differentiated 5 days; immunoprecipitation overnight at 4°C, protein A-agarose; Coomassie band specific against the IgG group cut and sent for mass spectrometry

- binding: binds
Substance: integrin β1 (from UniProt P53712 21-798) (receptor)

No constants are given. Whether binding was seen depends on the method and setting. In cells and extracts the contact can be indirect. A yes stands for co-enrichment or nearness to the bait. Other partners may have been found.
